PubChem BioAssay AID504804 | Drosophila RNAi Screening Center | 2011
Purpose: 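dsRNAs that improve Kc cell survival under doxorubicin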 (primary screen). Cell system: Drosophila Kc cells. Reagents: long dsRNA against Drosophila genes, 0.5 µg dsRNA per well. Timing: 96 h (48 h knock-down, then 48 h drug). Challenge: doxorubicin 5 µg/ml for 48 h, added 48 h after dsRNA. Measured: 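Viability measured as cellular ATP by luminescence after 48 h knock-down then 48 h doxorubicin at 5 µg/ml; unnormalised plate counts for each replicate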. Direction: raw ATP luminescence: higher = more viable cells, protection from doxorubicin. Hit rule: 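z-score of 2 or more over plate mean in both duplicates, retained only when retests and separate dsRNAs confirm the protection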.
The screen tested about 19,000 reagents; shown is an unselected part of those that have a named target and a result. In the full data, 47 (0.25%) are marked active. 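Signals are raw, not normalised; exact z-scores behind calls not deposited; actives needed confirmation, so some wells reaching 2 SD are inactive.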 Entries without a mark were called inactive. The numbers tell different reagents against one gene apart. Names joined by + are all predicted targets of the reagent.

Target gene | reagent | raw ATP luminescence, replicate 1 | raw ATP luminescence, replicate 2
CG13579 | 1 | 46257 | 54780
beat-Vb (beaten path Vb) | 1 | 2.41e5 | 2.55e5
beat-Vb (beaten path Vb) | 2 | 1.75e5 | 2.00e5
beat-Vb (beaten path Vb) | 3 | 48297 | 57240
CG31100 | 1 | 66923 | 59503
CG31100 | 2 | 56297 | 70280
Arpc3A (Actin-related protein 2/3 complex, subunit 3A) | 1 | 64820 | 55790
PolE4 (DNA polymerase epsilon subunit 4) | 1 | 32657 | 42873
Spc105R (Spc105-related) | 1 | 66417 | 61847
Ugt35C1 (UDP-glycosyltransferase family 35 member C1) | 1 | 62777 | 64273
Tpl94D (Transition protein-like 94D) | 1 | 2.32e5 | 1.96e5
CG12121 | 1 | 3.40e5 | 3.58e5
unc (uncoordinated) | 1 | 3.10e5 | 3.34e5
Ddr (Discoidin domain receptor) | 1 | 2.88e5 | 3.17e5
Ddr (Discoidin domain receptor) | 2 | 2.81e5 | 2.95e5
Ddr (Discoidin domain receptor) | 3 | 48650 | 36370
Ddr (Discoidin domain receptor) | 4 | 29380 | 28370
Ddr (Discoidin domain receptor) | 5 | 22897 | 34973
CG5160 | 1 | 26983 | 21887
Muc68Ca (Mucin 68Ca) | 1 | 1.72e5 | 1.74e5
Muc68Ca (Mucin 68Ca) | 2 | 80773 | 62460
kat80 (katanin 80) | 1 | 3.05e5 | 2.73e5
kat80 (katanin 80) | 2 | 2.88e5 | 2.28e5
RpL5 (Ribosomal protein L5) | 1 | 37473 | 35240
CG6462 | 1 | 70357 | 82713
CG12231 | 1 | 3.01e5 | 2.93e5
CG10462 | 1 | 84400 | 70270
Flo1 (Flotillin 1) | 1 | 82000 | 87227
Or42a (Odorant receptor 42a) | 1 | 46707 | 53283
CG5404 | 1 | 59810 | 51353
CG6295 | 1 | 44530 | 39210
Mes2 (Mesoderm-expressed 2) | 1 | 47500 | 29743
Mes2 (Mesoderm-expressed 2) | 2 | 21143 | 19037
CG17196 | 1 | 70560 | 70910
CG15368 | 1 | 2.67e5 | 2.33e5
CG33775 | 1 | 85080 | 87240
CR11386 + CR33222 | 1 | 36140 | 31390
Nplp3 (Neuropeptide-like precursor 3) | 1 | 71317 | 49313
chic (chickadee) | 1 | 35907 | 41143
CG6431 | 1 | 41960 | 69940
CG33337 | 1 | 2.29e5 | 1.99e5
Rpt4 (Regulatory particle triple-A ATPase 4) | 1 | 33950 | 32420
Prp6 (pre-mRNA processing factor 6) | 1 | 22720 | 21070
Tsp42Ep (Tetraspanin 42Ep) | 1 | 73290 | 66717

Already shown: entries from further up.
Target gene | reagent | raw ATP luminescence, replicate 1 | raw ATP luminescence, replicate 2
CG31100 | 2 | 56297 | 70280
Arpc3A (Actin-related protein 2/3 complex, subunit 3A) | 1 | 64820 | 55790
PolE4 (DNA polymerase epsilon subunit 4) | 1 | 32657 | 42873
Spc105R (Spc105-related) | 1 | 66417 | 61847
Ugt35C1 (UDP-glycosyltransferase family 35 member C1) | 1 | 62777 | 64273
Tpl94D (Transition protein-like 94D) | 1 | 2.32e5 | 1.96e5
CG12121 | 1 | 3.40e5 | 3.58e5
unc (uncoordinated) | 1 | 3.10e5 | 3.34e5
Ddr (Discoidin domain receptor) | 1 | 2.88e5 | 3.17e5
Ddr (Discoidin domain receptor) | 2 | 2.81e5 | 2.95e5
Ddr (Discoidin domain receptor) | 3 | 48650 | 36370

The list goes on:
Target gene | reagent | raw ATP luminescence, replicate 1 | raw ATP luminescence, replicate 2
Gr93c (Gustatory receptor 93c) | 1 | 59970 | 68660
cue (cueball) | 1 | 77460 | 67253
CG9636 | 1 | 51323 | 21930
PNKP (Polynucleotide kinase 3'-phosphatase) | 1 | 59973 | 56317
CG15279 | 1 | 1.26e5 | 85583
CG11790 | 1 | 39667 | 71710
CG33771 | 1 | 1.63e5 | 1.69e5
mRpL49 (mitochondrial ribosomal protein L49) | 1 | 3.61e5 | 3.54e5
vih (vihar) | 1 | 58057 | 57707
Wdr62 (WD repeat domain 62) | 1 | 3.02e5 | 2.71e5
Wdr62 (WD repeat domain 62) | 2 | 3.21e5 | 3.16e5
Wdr62 (WD repeat domain 62) | 3 | 55960 | 31313
mRpL54 (mitochondrial ribosomal protein L54) | 1 | 73110 | 50940
Spn28Dc (Serpin 28Dc) | 1 | 42770 | 65567
CG31917 + Tfb5 | 1 | 24083 | 20777
CG31917 + Tfb5 | 2 | 25317 | 28707
Hecw (Hecw ubiquitin protein ligase) | 1 | 3.81e5 | 3.66e5
Hecw (Hecw ubiquitin protein ligase) | 2 | 3.85e5 | 3.62e5
CG5418 | 1 | 68217 | 83047
Cdc5 (Cell division cycle 5) | 1 | 52597 | 50837
sand (sandman) | 1 | 42283 | 77607
CG9072 | 1 | 3.01e5 | 3.17e5
drn (doctor no) | 1 | 60970 | 61410
CG14763 | 1 | 30623 | 66597
Pp1-Y1 (Protein phosphatase 1, Y-linked 1) | 1 | 2.56e5 | 3.83e5
Ref1 (RNA and export factor binding protein 1) | 1 | 53097 | 20613
flap (flapper) | 1 | 82080 | 56873
flap (flapper) | 2 | 64563 | 67347
kmg (kumgang) | 1 | 72600 | 89750
CG14883 | 1 | 83460 | 83350
CG10366 | 1 | 57473 | 60133
Rrp6 | 1 | 36197 | 19837
CG12971 | 1 | 56323 | 51897
Tdg (Thymine DNA glycosylase) | 1 | 2.10e5 | 2.08e5
Tdg (Thymine DNA glycosylase) | 2 | 58010 | 52290
fon (fondue) | 1 | 1.21e5 | 81817
sstn (stepping stone) | 1 | 54020 | 49520
Pal2 (Peptidyl-alpha-hydroxyglycine-alpha-amidating lyase 2) | 1 | 53590 | 50533
ome (omega) | 1 | 75077 | 73220
ome (omega) | 2 | 42790 | 37790
ome (omega) | 3 | 85240 | 59813
